This test concerns CD8F1 mice, subcutaneous mammary adenocarcinoma, T/C%. Briefly: NCI In Vivo Anticancer Drug Screen. Data for tumor model Mammary Adenocarcinoma CD8F1 (subcutaneous) in CD8F1. The following applies: higher T/C = larger tumour. In outline: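 Antitumor activity is assessed in transplantable-tumor mice by comparing the treated group with a vehicle-treated control group. Survival or tumor size serves as the measure, reported as T divided by C.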

Where [1] appears, read: T/C endpoint: median tumor weight change, dose: 20.0 mg/kg/injection, schedule: Q01DX001 (ip), vehicle: Klucel (hydroxypropylcellulose) (HPC).
Setting [2] is: T/C endpoint: median tumor weight change, dose: 2000.0 mg/kg/injection, schedule: Q01DX001 (ip), vehicle: saline with Tween-80.
Where [3] appears, read: T/C endpoint: median tumor weight (est.), dose: 400.0 mg/kg/injection, schedule: Q07DX005 (ip), vehicle: saline with Tween-80.
[4] abbreviates: T/C endpoint: median tumor weight change, dose: 500.0 mg/kg/injection, schedule: Q01DX001 (ip), vehicle: saline with Tween-80.
[5] abbreviates: T/C endpoint: median tumor weight change, dose: 1000.0 mg/kg/injection, schedule: Q01DX001 (ip), vehicle: saline with Tween-80.
[6] abbreviates: T/C endpoint: median tumor weight (est.), dose: 200.0 mg/kg/injection, schedule: Q07DX005 (ip), vehicle: saline with Tween-80.

Each structure is given as a SMILES string. The list is a part of this screen's results and no random one: it gathers tests that were run many times, whatever their T/C, doses with no T/C, and many T/C values between a quarter and a half above the control. Other doses and runs of a compound stand elsewhere. T/C is the treated group as % of the vehicle group. Schedules are NCI's codes, taken here to give the interval after Q, in days (D) or hours (H), and the number of doses after X. Some T/C values are followed by the survivors on the day toxicity was checked, most often the fifth; without a count, all were alive then. Some doses have a count of surviving animals in place of a T/C: the source holds a T/C of zero for them, seemingly a mark for toxic or unscored doses. Counts of survivors are from the toxicity check (mostly the fifth day) where no day follows; animals may have died later. Some entries hold several experiments; the values are given in rising order.

Among the data in PubChem BioAssay AID220 (DTP/NCI, 2004) are survivor count and T/C values, retold here.

For `Cc1ccc(S(=O)(=O)NC(=O)C2C(=O)CC3(CCCCC3)CC2=O)cc1`, the survivor count was 5 of 10 on day 35 (T/C endpoint: median tumor weight change, dose: 125.0 mg/kg/injection, schedule: Q01DX001 (ip), vehicle: Klucel (hydroxypropylcellulose) (HPC)); 1 of 10 on day 33 and 2 of 10 on day 35 (T/C endpoint: median tumor weight change, dose: 250.0 mg/kg/injection, schedule: Q01DX001 (ip), vehicle: Klucel (hydroxypropylcellulose) (HPC)); 1 of 10 on day 33 and 1 of 10 on day 35 (T/C endpoint: median tumor weight change, dose: 500.0 mg/kg/injection, schedule: Q01DX001 (ip), vehicle: Klucel (hydroxypropylcellulose) (HPC)); 0 of 10 on day 33 and 0 of 10 on day 35 (T/C endpoint: median tumor weight change, dose: 1000.0 mg/kg/injection, schedule: Q01DX001 (ip), vehicle: Klucel (hydroxypropylcellulose) (HPC)); 0 of 10 on day 33 and 0 of 10 on day 35 (T/C endpoint: median tumor weight change, dose: 2000.0 mg/kg/injection, schedule: Q01DX001 (ip), vehicle: Klucel (hydroxypropylcellulose) (HPC)).
For `COc1ccc([C@@]23Oc4cc(OC)cc(OC)c4[C@]2(O)[C@H](O)[C@H](C(=O)N(C)C)[C@H]3c2ccccc2)cc1`, the survivor count under setting [1] was 1 of 10 on day 36.
For the compound `COCCCNC1=C(C#N)C(=O)NC(c2cccc([N+](=O)[O-])c2)S1` (stereo not given), the survivor count under setting [2] is on record as 4 of 10 on day 35.
In the case of `N=c1ccn2c(n1)OC1C(O)C(CO)OC12` (stereo not given), the T/C (T/C endpoint: median tumor weight (est.), dose: 50.0 mg/kg/injection, schedule: Q07DX005 (ip), vehicle: suspension in saline, evaluated on day 30) is 137 % of control.
On to `OCC1OC(n2cnc3c(Cl)ncnc32)C(O)C1O` (stereo not given), for which the T/C (T/C endpoint: median tumor weight (est.), dose: 50.0 mg/kg/injection, schedule: Q07DX005 (ip), vehicle: saline, evaluated on day 30) was 130 % of control.
As for `COC1=CC(=O)N(C(=O)C2CSC(C(CO)NC(=O)c3csc(/C=N/O)n3)=N2)C1` (stereo not given), under “T/C endpoint: median tumor weight (est.), dose: 50.0 mg/kg/injection, schedule: Q07DX005 (ip), vehicle: Klucel (hydroxypropylcellulose) (HPC), evaluated on day 30”, the T/C is 138 % of control.
Regarding `BrC1c2cccc3cccc(c23)C1Br` (stereo not given), the survivor count under setting [3] is 6 of 10 on day 30.
As for `CC[C@]1(O)C[C@H]2CN(CCc3c([nH]c4ccccc34)[C@@](C(=O)OC)(c3cc4c(cc3OC)N(C=O)[C@H]3[C@@](O)(C(=O)OC)[C@H](OC(C)=O)[C@]5(CC)C=CCN6CC[C@]43[C@@H]65)C2)C1`, the T/C (T/C endpoint: median tumor weight (est.), dose: 0.4 mg/kg/injection, schedule: Q01DX005 (ip), vehicle: saline, evaluated on day 30) was 146 % of control. In addition, the survivor count is 6 of 10 (T/C endpoint: median tumor weight (est.), dose: 0.95 mg/kg/injection, schedule: Q04DX005 (ip), vehicle: saline); 6 of 10 on day 30 (T/C endpoint: median tumor weight (est.), dose: 1.0 mg/kg/injection, schedule: Q07DX005 (ip), vehicle: saline); 2 of 10 on day 30 and 6 of 10 on day 30 (T/C endpoint: median tumor weight (est.), dose: 2.0 mg/kg/injection, schedule: Q07DX005 (ip), vehicle: saline); 3 of 10 (T/C endpoint: median tumor weight (est.), dose: 2.1 mg/kg/injection, schedule: Q04DX005 (ip), vehicle: saline); 6 of 10 (T/C endpoint: median tumor weight (est.), dose: 2.1 mg/kg/injection, schedule: Q07DX005 (ip), vehicle: saline); 1 of 10 (T/C endpoint: median tumor weight (est.), dose: 3.0 mg/kg/injection, schedule: Q04DX005 (ip), vehicle: saline). Further, the survivor count is given as 4 of 10 (T/C endpoint: median tumor weight (est.), dose: 3.0 mg/kg/injection, schedule: Q07DX005 (ip), vehicle: saline); 0 of 10 on day 30 (T/C endpoint: median tumor weight (est.), dose: 4.0 mg/kg/injection, schedule: Q07DX005 (ip), vehicle: saline); 0 of 10 on day 30 (T/C endpoint: median tumor weight (est.), dose: 8.0 mg/kg/injection, schedule: Q07DX005 (ip), vehicle: saline).
With `C=C1N(C)c2ccccc2C1(C)C`, the survivor count runs as follows: (T/C endpoint: median tumor weight change, dose: 250.0 mg/kg/injection, schedule: Q01DX001 (ip), vehicle: saline with Tween-80) 0 of 10 on day 32; under setting [4], 0 of 10 on day 32; under setting [5], 0 of 10 on day 32; under setting [2], 0 of 10 on day 32.
With `CC(=O)ON(C(C)=O)c1ccc(C(N)=O)cc1`, the survivor count is on record as 5 of 10 on day 31 under setting [4] and 1 of 10 on day 31 under setting [5].
In the case of `O=C1C=C2C(=CCOC2O)O1` (stereo not given), the survivor count is, setting by setting: (T/C endpoint: median tumor weight (est.), dose: 0.75 mg/kg/injection, schedule: Q07DX005 (ip), vehicle: saline) 4 of 10 on day 30; (T/C endpoint: median tumor weight (est.), dose: 6.0 mg/kg/injection, schedule: Q07DX005 (ip), vehicle: saline) 1 of 10 on day 30; (T/C endpoint: median tumor weight (est.), dose: 8.0 mg/kg/injection, schedule: Q07DX005 (ip), vehicle: Klucel (hydroxypropylcellulose) (HPC)) 0 of 10 on day 30; (T/C endpoint: median tumor weight (est.), dose: 12.0 mg/kg/injection, schedule: Q07DX005 (ip), vehicle: saline) 0 of 10 on day 30; (T/C endpoint: median tumor weight (est.), dose: 16.0 mg/kg/injection, schedule: Q07DX005 (ip), vehicle: Klucel (hydroxypropylcellulose) (HPC)) 0 of 10 on day 30; (T/C endpoint: median tumor weight change, dose: 10.0 mg/kg/injection, schedule: Q01DX001 (ip), vehicle: Klucel (hydroxypropylcellulose) (HPC)) 0 of 9 on day 29. The survivor count is, setting by setting: under setting [1], 0 of 9 on day 29; (T/C endpoint: median tumor weight change, dose: 40.0 mg/kg/injection, schedule: Q01DX001 (ip), vehicle: Klucel (hydroxypropylcellulose) (HPC)) 0 of 9 on day 29. Also, the T/C (T/C endpoint: median tumor weight change, dose: 2.5 mg/kg/injection, schedule: Q01DX001 (ip), vehicle: Klucel (hydroxypropylcellulose) (HPC), evaluated on day 29) is 127 % of control.
In the case of `COc1cc(C[C@H]2c3cc(OC)c(OC)cc3CCN2C)c(Oc2cc3c(cc2OC)-c2c(OC)c(OC)cc4c2[C@H](C3)N(C)CC4)cc1OC`, the T/C is 131 % of control (T/C endpoint: median tumor weight (est.), dose: 25.0 mg/kg/injection, schedule: Q07DX005 (ip), vehicle: saline, evaluated on day 30) and 129 % of control (T/C endpoint: median tumor weight (est.), dose: 100.0 mg/kg/injection, schedule: Q07DX005 (ip), vehicle: saline, evaluated on day 30).
With `CS(=O)(=O)OCCCNCCCOS(C)(=O)=O`, the survivor count is 1 of 10 (T/C endpoint: median tumor weight (est.), dose: 150.0 mg/kg/injection, schedule: Q07DX005 (ip), vehicle: saline) and 0 of 10 on day 30 (T/C endpoint: median tumor weight (est.), dose: 300.0 mg/kg/injection, schedule: Q07DX005 (ip), vehicle: saline).
As to `Cc1c2ccccc2c(C)c2c1cc(C(=O)O)c1ccccc12`, the T/C (T/C endpoint: median tumor weight change, dose: 25.0 mg/kg/injection, schedule: Q01DX001 (ip), vehicle: sodium bicarbonate, evaluated on day 28) was 129 % of control.
Consider `O=c1cnn(C2OC(CO)C(O)C2O)c(=O)[nH]1` (stereo not given), for which the T/C by setting is: (T/C endpoint: mean tumor weight, dose: 500.0 mg/kg/injection, schedule: Q07DX004 (ip), vehicle: saline, evaluated on day 27) 142 % of control; (T/C endpoint: median tumor weight (est.), dose: 1600.0 mg/kg/injection, schedule: Q07DX005 (ip), vehicle: saline, evaluated on day 30) 126 % of control.
As to `Cn1c2nc(=O)n(-c3ccccc3)c(=O)c-2nc2c1CCCC2`, the survivor count was 4 of 10 on day 30 under setting [6] and 0 of 10 on day 30 under setting [3].
As for `COc1ccc([I+]c2cccc(Cl)c2)cc1Cl`, under “T/C endpoint: median tumor weight (est.), dose: 12.5 mg/kg/injection, schedule: Q07DX005 (ip), vehicle: saline with Tween-80, evaluated on day 30”, the T/C was 133 % of control. The survivor count is, setting by setting: (T/C endpoint: median tumor weight (est.), dose: 100.0 mg/kg/injection, schedule: Q07DX005 (ip), vehicle: saline with Tween-80) 2 of 10; under setting [6], 1 of 10.
`COc1cc2c(ccc3c4cc(OC)c(OC)cc4c[n+](C)c23)cc1O`: the T/C is 137 % of control [9 of 10 alive on day 31] (T/C endpoint: median tumor weight change, dose: 125.0 mg/kg/injection, schedule: Q01DX001 (ip), vehicle: saline, evaluated on day 31) and 134 % of control [9 of 10 alive on day 31] (T/C endpoint: median tumor weight change, dose: 500.0 mg/kg/injection, schedule: Q01DX001 (ip), vehicle: saline, evaluated on day 31).
